{"source": "paper PMC4930906", "about": "(The Korean Journal of Physiology & Pharmacology : Official …, 2016)", "key": {"TRESK": {"biological_target": "T1, TRESK (Mus musculus, UniProt Q6VV64)", "T1 sequence (Q6VV64 1-394)": "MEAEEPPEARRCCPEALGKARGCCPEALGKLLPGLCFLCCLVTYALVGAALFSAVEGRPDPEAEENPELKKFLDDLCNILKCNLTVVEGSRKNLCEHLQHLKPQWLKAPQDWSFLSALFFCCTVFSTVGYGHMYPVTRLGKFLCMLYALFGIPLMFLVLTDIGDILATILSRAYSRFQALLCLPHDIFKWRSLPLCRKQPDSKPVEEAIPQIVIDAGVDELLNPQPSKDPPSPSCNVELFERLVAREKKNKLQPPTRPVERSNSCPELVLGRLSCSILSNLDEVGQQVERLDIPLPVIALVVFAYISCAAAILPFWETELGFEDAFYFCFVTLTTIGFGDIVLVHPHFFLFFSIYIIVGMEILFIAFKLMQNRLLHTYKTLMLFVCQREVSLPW", "assay": "whole-cell patch clamp, HEK293, voltage ramp, current at +[…] mV", "format": "cell-based"}, "TREK-2": {"biological_target": "T2, TREK-2 (Rattus norvegicus, UniProt Q9JIS4)", "T2 sequence (Q9JIS4 1-538)": "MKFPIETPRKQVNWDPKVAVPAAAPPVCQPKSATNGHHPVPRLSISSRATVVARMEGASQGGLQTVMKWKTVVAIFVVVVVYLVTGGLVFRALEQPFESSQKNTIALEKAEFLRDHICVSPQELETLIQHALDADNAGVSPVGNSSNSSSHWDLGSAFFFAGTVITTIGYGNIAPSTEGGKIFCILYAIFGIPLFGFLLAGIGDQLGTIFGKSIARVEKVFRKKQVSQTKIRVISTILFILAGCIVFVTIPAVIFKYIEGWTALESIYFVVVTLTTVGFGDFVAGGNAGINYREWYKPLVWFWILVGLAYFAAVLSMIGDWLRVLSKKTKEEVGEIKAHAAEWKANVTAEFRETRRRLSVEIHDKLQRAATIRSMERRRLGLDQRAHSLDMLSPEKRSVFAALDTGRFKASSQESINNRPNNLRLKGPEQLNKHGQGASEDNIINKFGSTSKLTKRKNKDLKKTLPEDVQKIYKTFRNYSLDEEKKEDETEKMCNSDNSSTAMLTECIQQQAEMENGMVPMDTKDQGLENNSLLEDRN", "assay": "whole-cell patch clamp, HEK293, voltage ramp, current at +[…] mV", "format": "cell-based"}}, "data": [{"smiles": "CNCCC(Oc1ccc(C(F)(F)F)cc1)c1ccccc1", "note": "(centres unmarked) [fluoxetine]", "values": [{"measurement": "IC50", "setting": "TRESK", "value": "17 ± 5", "unit": "µM"}, {"measurement": "IC50", "setting": "TREK-2", "value": "31 ± 7", "unit": "µM"}]}]}
